Data taken from patent publication US20100324123A1, “GLMS RIBOSWITCHES, STRUCTURE-BASED COMPOUND DESIGN WITH GLMS RIBOSWITCHES, AND METHODS AND COMPOSITIONS FOR USE OF AND WITH GLMS RIBOSWITCHES” (Yale University, priority 2006, published 2010).
For at least one compound, name, drawing or mass did not settle the structure.

System: glmS ribozyme
Experiment: activity by electrophoretic in-line probing (gel electrophoresis methods)
Type: binding

Question: With `C[N+](C)(C)C1C(O)O[C@H](COP(=O)(O)O)C(O)[C@@H]1O` (stereo partly shown) [Me3N-Gln 6P, 2-(trimethylammonio)-2-deoxyglucose 6-phosphate] as the molecule, how does the “Activity by electrophoretic in-line probing” value read?
Answer: The value was “No”.
